Measured values as given in PMC6834594, “Structure and regulation of ZCCHC4 in m^6A-methylation of 28S rRNA” (Nature Communications, 2019).
Where a chain is given by its changes, count along the chain named. Construct, isoform or probe ends are uncertain for at least one entry. At least one verdict was read from the data and is not stated in words by the source. For part of these data: Protein sequences can lack the tags named with them.

Assays:
Experiment in all cases: EMSA
[1] = target: T1, ZCCHC4 D276A (human) (UniProt Q9H5U6); details: 0.3 uM protein, 0.6 uM RNA; EMSA: 20 mM Tris-HCl pH 7.5, 100 mM NaCl, 5% glycerol, 1 mM DTT, 4 C, 1 h; 0.3 uM RNA with 0-1.2 uM protein unless noted; 6% TBE native gel; recombinant protein; residues 24-513; protein details: His6-SUMO removed by ULP1; label: none (SYBR Gold stain)
T1 sequence (looked up): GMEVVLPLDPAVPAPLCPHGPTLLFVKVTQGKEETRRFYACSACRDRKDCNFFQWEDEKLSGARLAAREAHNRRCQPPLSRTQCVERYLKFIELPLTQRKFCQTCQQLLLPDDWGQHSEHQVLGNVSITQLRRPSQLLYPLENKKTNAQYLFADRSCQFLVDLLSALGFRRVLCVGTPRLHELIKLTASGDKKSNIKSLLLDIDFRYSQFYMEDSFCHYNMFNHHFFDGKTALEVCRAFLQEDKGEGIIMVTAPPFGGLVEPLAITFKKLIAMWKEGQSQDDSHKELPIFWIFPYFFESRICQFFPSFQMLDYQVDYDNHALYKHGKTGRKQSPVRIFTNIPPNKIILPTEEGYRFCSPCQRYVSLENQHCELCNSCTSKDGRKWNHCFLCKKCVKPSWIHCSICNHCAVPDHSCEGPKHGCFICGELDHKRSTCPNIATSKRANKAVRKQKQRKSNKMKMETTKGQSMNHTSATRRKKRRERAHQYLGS

[2] = target: T2, ZCCHC4 N342A (human) (UniProt Q9H5U6); details: EMSA: 20 mM Tris-HCl pH 7.5, 100 mM NaCl, 5% glycerol, 1 mM DTT, 4 C, 1 h; 0.3 uM RNA with 0-1.2 uM protein unless noted; 6% TBE native gel; recombinant …; residues 24-513; protein details: His6-SUMO removed by ULP1; label: none (SYBR Gold stain)
T2 sequence (looked up): T1 sequence (looked up) with A253D, N319A

[3] = target: ZCCHC4 R68A (human) (UniProt Q9H5U6); details: 0.3 uM protein, 0.6 uM RNA; EMSA: 20 mM Tris-HCl pH 7.5, 100 mM NaCl, 5% glycerol, 1 mM DTT, 4 C, 1 h; 0.3 uM RNA with 0-1.2 uM protein unless noted; 6% TBE native gel; recombinant protein; residues 24-513; protein details: His6-SUMO removed by ULP1; label: none (SYBR Gold stain)
[4] = target: T3, ZCCHC4 W78A (human) (UniProt Q9H5U6); details: 0.3 uM protein, 0.6 uM RNA; EMSA: 20 mM Tris-HCl pH 7.5, 100 mM NaCl, 5% glycerol, 1 mM DTT, 4 C, 1 h; 0.3 uM RNA with 0-1.2 uM protein unless noted; 6% TBE native gel; recombinant protein; residues 24-513; protein details: His6-SUMO removed by ULP1; label: none (SYBR Gold stain)
T3 sequence (looked up): T1 sequence (looked up) with W55A, A253D

[5] = target: T4, ZCCHC4 Y318A (human) (UniProt Q9H5U6); details: 0.3 uM protein, 0.6 uM RNA; EMSA: 20 mM Tris-HCl pH 7.5, 100 mM NaCl, 5% glycerol, 1 mM DTT, 4 C, 1 h; 0.3 uM RNA with 0-1.2 uM protein unless noted; 6% TBE native gel; recombinant protein; residues 24-513; protein details: His6-SUMO removed by ULP1; label: none (SYBR Gold stain)
T4 sequence (looked up): T1 sequence (looked up) with A253D, Y295A

[6] = target: T5, ZCCHC4 Y340A (human) (UniProt Q9H5U6); details: EMSA: 20 mM Tris-HCl pH 7.5, 100 mM NaCl, 5% glycerol, 1 mM DTT, 4 C, 1 h; 0.3 uM RNA with 0-1.2 uM protein unless noted; 6% TBE native gel; recombinant …; residues 24-513; protein details: His6-SUMO removed by ULP1; label: none (SYBR Gold stain)
T5 sequence (looked up): T1 sequence (looked up) with A253D, Y317A

Measured: binding result

CGGUACACCUGUCAAACGGUAACGCAGGUG [30-mer 28S rRNA]
binds: [1] | [2] | [3] | [4] | [5] | [6]
